Measurements taken from article doi:10.1101/2025.01.09.632146.
No constants are given. Whether binding was seen depends on the method and setting. For some assays here: In cells and extracts the contact can be indirect. Some binding calls cover weakened binding; strength is not graded here.

The chains behind the UniProt entries cited, without tags or fusion partners. Where a name states a change or a piece, a line headed by the entry shows the natural chain unless it says otherwise.
UniProt Q01474: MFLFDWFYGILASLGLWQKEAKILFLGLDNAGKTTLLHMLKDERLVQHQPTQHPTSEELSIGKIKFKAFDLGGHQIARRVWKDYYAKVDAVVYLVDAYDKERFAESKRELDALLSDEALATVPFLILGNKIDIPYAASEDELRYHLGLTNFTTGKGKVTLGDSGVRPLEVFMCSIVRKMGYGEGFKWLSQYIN
UniProt Q9SRI1: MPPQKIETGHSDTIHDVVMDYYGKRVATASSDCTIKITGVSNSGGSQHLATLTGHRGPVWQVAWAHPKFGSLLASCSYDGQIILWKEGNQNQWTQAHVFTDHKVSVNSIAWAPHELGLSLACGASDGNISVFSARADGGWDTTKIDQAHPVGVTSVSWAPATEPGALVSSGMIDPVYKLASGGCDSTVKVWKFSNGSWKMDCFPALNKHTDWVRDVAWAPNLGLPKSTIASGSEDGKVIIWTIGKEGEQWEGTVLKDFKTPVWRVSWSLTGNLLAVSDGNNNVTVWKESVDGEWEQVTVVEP
UniProt Q9CAT6: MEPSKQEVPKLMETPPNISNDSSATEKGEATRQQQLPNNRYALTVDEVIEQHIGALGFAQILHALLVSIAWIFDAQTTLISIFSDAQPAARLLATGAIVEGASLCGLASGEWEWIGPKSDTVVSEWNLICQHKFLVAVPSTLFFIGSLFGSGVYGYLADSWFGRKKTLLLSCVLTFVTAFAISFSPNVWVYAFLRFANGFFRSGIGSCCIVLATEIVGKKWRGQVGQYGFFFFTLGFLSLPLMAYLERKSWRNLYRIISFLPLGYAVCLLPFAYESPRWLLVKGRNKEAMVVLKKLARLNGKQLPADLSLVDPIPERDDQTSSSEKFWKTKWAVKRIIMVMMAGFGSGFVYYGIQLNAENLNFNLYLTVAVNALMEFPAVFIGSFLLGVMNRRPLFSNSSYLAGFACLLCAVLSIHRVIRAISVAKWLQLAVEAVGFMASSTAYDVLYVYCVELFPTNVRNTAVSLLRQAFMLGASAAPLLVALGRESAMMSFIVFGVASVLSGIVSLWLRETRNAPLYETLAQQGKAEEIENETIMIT

T1: AtPHT1;1-CubPLV (Arabidopsis thaliana) (UniProt Q8VYM2)
T1 sequence: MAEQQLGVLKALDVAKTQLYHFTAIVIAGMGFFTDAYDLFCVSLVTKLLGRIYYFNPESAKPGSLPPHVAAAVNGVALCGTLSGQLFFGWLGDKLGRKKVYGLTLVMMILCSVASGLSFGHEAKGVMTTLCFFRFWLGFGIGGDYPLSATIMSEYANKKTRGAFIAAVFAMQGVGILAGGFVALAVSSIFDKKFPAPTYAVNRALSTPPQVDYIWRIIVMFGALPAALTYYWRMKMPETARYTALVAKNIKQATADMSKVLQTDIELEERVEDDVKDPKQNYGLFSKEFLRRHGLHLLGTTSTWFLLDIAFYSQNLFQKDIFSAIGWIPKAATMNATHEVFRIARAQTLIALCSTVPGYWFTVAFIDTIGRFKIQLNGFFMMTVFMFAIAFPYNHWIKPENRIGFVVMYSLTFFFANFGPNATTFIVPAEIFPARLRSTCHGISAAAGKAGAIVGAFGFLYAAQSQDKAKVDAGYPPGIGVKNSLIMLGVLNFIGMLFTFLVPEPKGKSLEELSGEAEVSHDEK

T2: AtSEC16a-S11 (Arabidopsis thaliana) (UniProt Q9FGK9)
T2 sequence: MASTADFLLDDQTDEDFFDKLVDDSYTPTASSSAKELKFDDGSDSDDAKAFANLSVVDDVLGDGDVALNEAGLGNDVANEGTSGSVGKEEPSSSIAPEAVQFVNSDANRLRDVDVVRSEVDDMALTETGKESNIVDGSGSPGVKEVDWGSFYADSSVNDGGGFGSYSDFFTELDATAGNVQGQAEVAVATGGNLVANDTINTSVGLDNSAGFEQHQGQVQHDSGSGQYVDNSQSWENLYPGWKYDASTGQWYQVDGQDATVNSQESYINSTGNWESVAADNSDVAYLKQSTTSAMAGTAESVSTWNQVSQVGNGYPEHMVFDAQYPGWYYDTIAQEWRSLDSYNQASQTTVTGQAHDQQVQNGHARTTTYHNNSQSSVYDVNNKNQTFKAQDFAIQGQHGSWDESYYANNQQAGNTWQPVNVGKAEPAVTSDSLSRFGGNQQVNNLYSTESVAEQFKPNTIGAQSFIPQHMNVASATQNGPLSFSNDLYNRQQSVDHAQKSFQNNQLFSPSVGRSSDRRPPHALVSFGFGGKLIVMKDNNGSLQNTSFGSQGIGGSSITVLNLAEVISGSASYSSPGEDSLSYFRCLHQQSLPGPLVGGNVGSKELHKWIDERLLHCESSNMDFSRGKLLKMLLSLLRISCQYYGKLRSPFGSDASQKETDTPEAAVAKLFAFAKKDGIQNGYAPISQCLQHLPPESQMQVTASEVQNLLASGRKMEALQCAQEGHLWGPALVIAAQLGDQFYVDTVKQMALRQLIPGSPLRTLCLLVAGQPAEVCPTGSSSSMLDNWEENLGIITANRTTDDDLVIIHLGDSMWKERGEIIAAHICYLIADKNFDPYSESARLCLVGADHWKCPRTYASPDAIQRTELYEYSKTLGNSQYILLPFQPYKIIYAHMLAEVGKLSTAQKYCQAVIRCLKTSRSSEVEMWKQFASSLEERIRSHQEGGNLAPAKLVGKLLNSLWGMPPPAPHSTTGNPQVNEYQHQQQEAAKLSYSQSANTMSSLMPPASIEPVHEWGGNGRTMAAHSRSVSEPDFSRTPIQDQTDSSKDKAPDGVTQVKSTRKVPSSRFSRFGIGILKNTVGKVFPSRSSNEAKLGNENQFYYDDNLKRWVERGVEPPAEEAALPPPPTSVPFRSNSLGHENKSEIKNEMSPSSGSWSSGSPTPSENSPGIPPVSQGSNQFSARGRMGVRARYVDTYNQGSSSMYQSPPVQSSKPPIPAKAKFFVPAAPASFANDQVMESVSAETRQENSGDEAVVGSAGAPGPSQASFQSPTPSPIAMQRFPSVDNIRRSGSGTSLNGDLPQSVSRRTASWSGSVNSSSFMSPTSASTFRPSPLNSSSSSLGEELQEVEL

T3: AtSEC24a-S11 (Arabidopsis thaliana) (UniProt Q9SFU0)
T3 sequence: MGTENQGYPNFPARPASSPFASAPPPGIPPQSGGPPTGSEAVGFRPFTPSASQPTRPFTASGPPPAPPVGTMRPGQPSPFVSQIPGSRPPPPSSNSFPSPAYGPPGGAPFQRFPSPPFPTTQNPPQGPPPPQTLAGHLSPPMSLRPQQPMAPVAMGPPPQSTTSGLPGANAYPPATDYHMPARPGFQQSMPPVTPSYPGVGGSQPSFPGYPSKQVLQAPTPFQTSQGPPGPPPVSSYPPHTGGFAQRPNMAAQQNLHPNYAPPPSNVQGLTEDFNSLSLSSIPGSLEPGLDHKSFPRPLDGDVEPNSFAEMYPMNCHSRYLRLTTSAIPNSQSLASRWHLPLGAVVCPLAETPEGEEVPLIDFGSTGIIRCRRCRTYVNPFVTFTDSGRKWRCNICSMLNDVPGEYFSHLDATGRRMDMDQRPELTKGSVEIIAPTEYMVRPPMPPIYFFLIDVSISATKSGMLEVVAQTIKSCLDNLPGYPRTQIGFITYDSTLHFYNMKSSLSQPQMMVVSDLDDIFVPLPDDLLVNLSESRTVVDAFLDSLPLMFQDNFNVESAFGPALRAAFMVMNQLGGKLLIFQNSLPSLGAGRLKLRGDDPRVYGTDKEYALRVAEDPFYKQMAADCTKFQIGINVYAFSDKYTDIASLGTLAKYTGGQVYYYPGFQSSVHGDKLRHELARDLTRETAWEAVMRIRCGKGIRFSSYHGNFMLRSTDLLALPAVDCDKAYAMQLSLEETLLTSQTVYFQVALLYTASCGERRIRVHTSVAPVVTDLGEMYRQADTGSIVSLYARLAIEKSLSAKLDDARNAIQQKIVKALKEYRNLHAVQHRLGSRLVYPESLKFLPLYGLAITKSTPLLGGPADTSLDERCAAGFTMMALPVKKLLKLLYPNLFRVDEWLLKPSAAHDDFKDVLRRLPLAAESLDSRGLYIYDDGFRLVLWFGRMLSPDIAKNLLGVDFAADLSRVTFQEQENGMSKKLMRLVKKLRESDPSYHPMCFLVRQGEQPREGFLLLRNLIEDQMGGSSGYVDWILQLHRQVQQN

B1: NubG-AtCNIH5 (protein, UniProt Q9SZ74 1-135)
chain: MGDLLDWIISFLFLATLIIIVIYQLTCLADLEFDRINPYDVSSRINRMVLPEFGLQGLLCLYYILTGHWFMAVLSLPHLFYNIRLYMKREHLADVTELYNTNKWEQKKRVYKIGHIALSIFITTYWLIHSALGDI
B2: S10-AtSEC12 (protein, UniProt Q39221 1-393)
chain: MANQSTETNQPSNMQTYGVPIYAADWIPEVDVRSKIIMDPEKSEDDDESSSSSSSSRSCIVLSGGGGEGRSGISNVILICRVDLNTNSLSEQPLGRLVVGSDLPYRMAVHPREGGLICALPNSCKLFHWEDIMSREDNQAGESEEVIKELRDVGQQLALAFNPEGSVLAAGAEDGTLRVFKWPSMNTLLNESQAHSSVKCLTFSESGQFLVSLGGPVCRVWDVNASAAVASLSKEKDEMFASCRFSVDSAGNEVLYIAANTERGGSIITCDTKLWKRKWSKPIKKNSISAFNVSADGKLLAIGTLEGDVLILESTRMQTIQVVKKAHLGLVTALTFSPDSRGLVSVSFDSRARLTMIEQKGDKPGVRWWLLVLLIVLLYVVAYYYMKAKGIIP
B3: S10-AtPHF1 (protein, UniProt Q8GYE0 1-398)
chain: MEIEEASRESGHVVCGSWIRRPKKVNWVLIAKASKRRGSSVSSPALLNIFSFDPITASLSSSPLATHTLKDSDGDPVAVSVHPGGDYFVCSTSKGGCKLFELVGGATGITILAKELLPLQNAGLQKCMAFSFDGSKLAVGGVDGCLRIMEWPNLSVILDEPKAHKSIRDMDFSLDSEFLATTSTDGSARIWKAEDGFPLSTLERSGDENIELCRFSKDGTKPFLFCAAQRGDTPMVNVYDISTWKKLGFKKLSRKTASTMAVSLDGKYIALGGKDGDVSVAEVKTMEIYHYSKRLHLGQSIASLEFCPSERVMLTTSSEWGEMVTKLTVPKEWKEWQIYALLFCLFMASVIAAYVFFENSDSFWKLPMGKDQKRPKISLFGGSSSTPSEDHSRWNLDL
B4: endogenous AtPHF1 (protein, UniProt Q8GYE0 1-398)
chain: B3 chain
B5: AtPHF1-NubG (protein, UniProt Q8GYE0 1-398)
chain: B3 chain

Experiments:
[1] = target: AtSAR1b-S11 (Arabidopsis thaliana) (UniProt Q01474); experiment: split reporter
[2] = target: AtSAR1b[T34N]-S11 (Arabidopsis thaliana) (UniProt Q01474); experiment: split reporter
[3] = target: T1, AtPHT1;1-CubPLV (Arabidopsis thaliana); experiment: two-hybrid
[4] = target: T2, AtSEC16a-S11 (Arabidopsis thaliana); experiment: split reporter
[5] = target: AtSEC13a-S11 (Arabidopsis thaliana) (UniProt Q9SRI1); experiment: split reporter
[6] = target: T3, AtSEC24a-S11 (Arabidopsis thaliana); experiment: split reporter
[7] = target: AtSAR1b[H74L]-CFP (Arabidopsis thaliana) (UniProt Q01474); experiment: co-IP

Molecule	binding [2]	binding [3]	other results
S10-AtPHF1 N (from UniProt Q8GYE0 1-337) (domain or fragment)	binds		binding [1]: binds
AtOCT1-NubG (from UniProt Q9CAT6 1-539)		no binding	
B1		binds	
B2	binds		
B3	binds		binding [4]: no binding; binding [5]: no binding; binding [6]: no binding
B4			binding [7]: binds
B5		binds	
